Reference: publication PMC8629753
Results are given in words; binding and its absence hold for the method and conditions named. Binding seen in cells or lysates may run through a third protein. Some entries that bind do so weakly or less than the wild type. Where a sequence is shown, tags or fusion partners need not be part of it.

Molecular target: T1, ANKRD31 p.Gln329* truncated protein, 3X FLAG tagged (human) (UniProt Q8N7Z5)
T1 sequence: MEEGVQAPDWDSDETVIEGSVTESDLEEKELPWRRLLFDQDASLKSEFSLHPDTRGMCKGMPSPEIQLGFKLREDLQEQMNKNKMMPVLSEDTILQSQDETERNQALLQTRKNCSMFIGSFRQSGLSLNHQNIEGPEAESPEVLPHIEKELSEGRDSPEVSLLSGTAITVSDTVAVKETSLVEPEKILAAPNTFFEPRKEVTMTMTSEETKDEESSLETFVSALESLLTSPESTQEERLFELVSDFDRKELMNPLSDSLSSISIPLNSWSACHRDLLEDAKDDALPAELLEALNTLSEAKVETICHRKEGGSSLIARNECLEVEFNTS
Experiment: co-IP; ANKRD31 (3X FLAG) and REC114 (HA) plasmids cotransfected into HEK293 cells for 48 hours; NP-40 lysis buffer; 0.5 mg protein with anti-FLAG M2 magnetic beads at room temperature for 3 hours; western blot

binding: binds
B1: REC114 with HA tag at C-terminus (protein, UniProt Q7Z4M0 1-266)
chain: MAEAGKVPLSLGLTGGEAAEWPLQRYARCIPSNTRDPPGPCLEAGTAPCPTWKVFDSNEESGYLVLTIVISGHFFIFQGQTLLEGFSLIGSKDWLKIVRRVDCLLFGTTIKDKSRLFRVQFSGESKEQALEHCCSCVQKLAQYITVQVPDGNIQELQLIPGPPRATESQGKDSAKSVPRQPGSHQHSEQQQVCVTAGTGAPDGRTSLTQLAQTLLASEELPHVYEQSAWGAEELGPFLRLCLMDQNFPAFVEEVEKELKKLAGLRN
